# Data taken from PubChem BioAssay AID504467 (National Center for Advancing Translational Sciences (NCATS), 2011).
# The campaign covered roughly 330,000 compounds. About 7,700 (2.3%) were called active. Inconclusive results, whose numbers are uncertain, are shown with a selection of clear calls. The call rests on the fitted dose curve; in most records, active means well fitted inhibition curve with a large enough effect; inconclusive means small, poorly fitted or top-dose-only effect, or effect the other way; inactive means flat fitted curve, though single readings scatter. Where the call is inconclusive, the potency comes from a doubtful curve fit.
# Test: qHTS screen for small molecules that inhibit ELG1-dependent DNA repair in human embryonic kidney (HEK293T) cells expressing luciferase-tagged ELG1; further: nearly all actives have a fitted effect of over 55% in size
# Details: HEK293T ELG1-luciferase reporter, luminescence, 16 h, DNA damage induced by 5-fluorouridine; activity change, negative = inhibition: at 46.1 µM (top of the series)
# Outline: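 5-Fluorouridine DNA damage + compound/DMSO, 2,000 cells/well, 16 h, 37 °C/5% CO2. ONE-Glo, 30 min RT, luminescence. Readout = decrease in reporter signal.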
# On the % scale 0 is the no-effect control and ±100 the full control effect; potency means the concentration at half of the fitted maximal effect.
Structure (SMILES),Potency,"activity change, negative = inhibition"
Oc1ccc(-c2[nH]ncc2-c2cccc3cccnc23)c(O)c1,"inconclusive: 11.6 µM [inhibitor, partial curve, poor fit]",
CCOC(=O)c1cnc2ccc(C(=O)OC)cc2c1Nc1ccc(C(=O)O)cc1,"inconclusive: 18.3 µM [activator, partial curve, poor fit]",
Cn1c(N)c(C(=O)COC(=O)c2ccccc2C(=O)c2ccc(Cl)cc2)c(=O)n(C)c1=O,"inconclusive: 23.1 µM [inhibitor, partial curve]",
Cc1cc(C)c[n+](-c2nc3ccccc3nc2[N-]S(=O)(=O)c2ccc(Br)s2)c1,inactive,
O=C(NC(=O)c1ccccc1F)OCc1ccc(Cl)cc1Cl,inactive,
O=c1c2ccccc2sn1-c1ccccc1,"inconclusive: 29.1 µM [activator, single point]",
Cc1nc2nc[nH]n2c(=O)c1CCOC(=O)c1ccccc1F,inactive,
CNc1ccccc(-c2ccc3cc4c(cc3n2)OCO4)c1=O,"inconclusive: 14.6 µM [activator, partial curve]",
N=c1n(CCN2CCOCC2)c2ccccc2n1CC(=O)c1cccc([N+](=O)[O-])c1,"inconclusive: 8.2 µM [inhibitor, partial curve]",
COc1ccc(S(=O)(=O)NCc2ccncc2)cc1NC(=O)c1ccc(Cl)cc1,"inconclusive: 16.4 µM [inhibitor, partial curve]",
O=C(CSc1ccc(-c2ccc(F)cc2)nn1)N1CCCCC1,"inconclusive: 14.1 µM [activator, partial curve, poor fit]",
COc1cc(C(=O)OCC(=O)Nc2ccc(C(C)=O)cc2)ccc1OCC(=O)N1CCOCC1,"inconclusive: 11.6 µM [inhibitor, partial curve]",
COc1ccc([C@H]2CC(=O)C=C(c3ccc(OC(F)(F)F)cc3)C2)cc1OC,"inconclusive: 0.231 µM [inhibitor, partial curve, poor fit]",
COc1ccc(/C=N/OC(=O)Nc2ccccc2OC)cc1,"inconclusive: 18.3 µM [activator, partial curve]",
O=C(CCS(=O)(=O)c1ccc(Cl)cc1)Nc1nc(-c2cccnc2)cs1,,inconclusive: 43.7% [activator]
CCC1(CC)Nc2ccccc2C(=O)N1c1ccc(NC(C)=O)cc1,"inconclusive: 20.6 µM [activator, single point]",
Cc1ccc(C(=O)COC(=O)c2cnccn2)cc1,inactive,
O=c1[nH]c(CN2CCN(Cc3ccc4c(c3)OCO4)CC2)nc2ccccc12,"inconclusive: 3.66 µM [inhibitor, full curve]",
O=C(NCc1ccccc1Cl)c1ccc2c(c1)OCO2,inactive,
CCC(C)(C)C1CCC2(CC1)NC(=O)N(CC(=O)Nc1nc(-c3ccc(C)cc3)cs1)C2=O (centres undefined),"inconclusive: 18.4 µM [activator, single point]",
Cc1ccc(-c2csc(NC(=O)c3ccccc3Cl)c2C(=O)O)cc1,"inconclusive: 9.2 µM [activator, partial curve]",
Clc1ccc(OCc2cc(-c3ccccc3)no2)c(Cl)c1,"inconclusive: 1.84 µM [activator, partial curve]",

# Retrieved by structure from above:
Structure (SMILES),Potency,"activity change, negative = inhibition"
Oc1ccc(-c2[nH]ncc2-c2cccc3cccnc23)c(O)c1,"inconclusive: 11.6 µM [inhibitor, partial curve, poor fit]",
O=C(CCS(=O)(=O)c1ccc(Cl)cc1)Nc1nc(-c2cccnc2)cs1,,inconclusive: 43.7% [activator]
O=c1c2ccccc2sn1-c1ccccc1,"inconclusive: 29.1 µM [activator, single point]",
COc1ccc([C@H]2CC(=O)C=C(c3ccc(OC(F)(F)F)cc3)C2)cc1OC,"inconclusive: 0.231 µM [inhibitor, partial curve, poor fit]",

# (more compounds)

Structure (SMILES),Potency,"activity change, negative = inhibition"
O=C(CCCn1c(=O)c2sccc2n(CC(=O)OCc2ccccc2)c1=O)NCc1ccco1,"inconclusive: 18.4 µM [inhibitor, partial curve]",
O=C(Nc1ccc2c(c1)OCO2)C1CCN(Cc2cnn(-c3ccccc3)c2-n2cccc2)CC1,"inconclusive: 18.4 µM [inhibitor, single point]",
CC(C)CNc1ncnc2c1sc1nc(N3CCOCC3)c3c(c12)CC(C)(C)OC3,"inconclusive: 1.03 µM [inhibitor, full curve]",
CS(=O)(=O)c1cccc(C(=O)Nc2ccccc2Cc2ccccc2)c1,inactive,
O=C(N/N=C/c1ccc(OC(=O)c2cccs2)cc1)c1cccc(F)c1,"inconclusive: 16.4 µM [activator, partial curve]",
CC(OC(=O)CNC(=O)c1ccc2ccccc2c1)C(=O)NC1CCCCC1C (centres undefined),inactive,
Cc1cc(C(=O)COC(=O)c2ccc[nH]c2=O)c(C)n1C1CC1,"inconclusive: 16.4 µM [activator, partial curve]",
CCN(CC)CCCNC(=O)c1cc(-c2ccc3c(c2)OCO3)on1,"inconclusive: 29.1 µM [activator, single point]",
O=C(c1ccco1)N1CCN(C(=O)c2cn(-c3ccccc3)nc2-c2ccc(F)cc2)CC1,"inconclusive: 20.6 µM [activator, single point]",
COC(=O)c1cc(CC(=O)c2ccc(O)cc2O)c(C)o1,"inconclusive: 5.62 µM [activator, single point]",
CC1CCCN(c2ccc(C(=O)OCn3nnc4ccccc4c3=O)cc2[N+](=O)[O-])C1 (centres undefined),inactive,
COc1c(C)cc(C(=O)C2CCCN(C(=O)c3cc(C4CC4)[nH]n3)C2)cc1C (centres undefined),"inconclusive: 32.6 µM [inhibitor, single point]",
CC1CN(c2ccc(Cl)nn2)CC(C)O1 (centres undefined),"inconclusive: 1.03 µM [activator, single point]",
O=C(CCn1[nH]c(=O)c2ccccc2c1=O)OC1CCCCC1,inactive,
O=C(CCN1CCN(c2ccccc2)CC1)NNC(=O)c1cccc2ccccc12,inactive,
Cc1ccc(OC(=O)c2cccc(S(=O)(=O)N(C)C)c2)c(-n2nc3ccccc3n2)c1,"inconclusive: 5.17 µM [activator, partial curve]",
Cc1ccc(Cl)cc1N1CCN(C(=O)Cc2ccc(-n3c(=O)[nH]c4ccsc4c3=O)cc2)CC1,"inconclusive: 29.1 µM [inhibitor, single point]",
NC(=S)NNc1cccc(Cl)c1,inactive,
CCOc1ccc(-n2c(=O)c3sccc3n(CC(=O)Nc3cccc(OC)c3)c2=O)cc1,inactive,
CN(C)CCCOc1ccc2c(c1)Sc1ccccc1CC2=O,inactive,
Cc1ccc(C(=O)CSc2nc3ccccc3c(=O)n2N)o1,"inconclusive: 4.11 µM [activator, single point]",
CCOc1ccc(C(C(=O)NC2CCCC2)N(C(=O)c2snc(C(N)=O)c2N)c2cccc(O)c2)cc1 (centres undefined),active: 4.61 µM,
